Some of the results follow. Further columns of the screen follow, without active or inactive calls. The list favours compounds with an active or inconclusive main result. Words in brackets tell the shape of the fitted curve; partial curves, single points and poor fits give uncertain potencies.

A short description of the assay: qHTS Assay for Modulators of Lamin A Splicing. The conditions noted are these: HeLa LMNA splicing GFP/RFP minigene ratio, 48 h. An outline of the steps:
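S3 HeLa stable clones carrying a lamin A-EGFP splicing minigene plus DsRed2 were seeded at 600 cells/well in Opti-MEM with 2% FBS, pin-dosed and incubated 48 h at 37°C. Acumen cytometry (488 nm) gave the GFP/RFP total-intensity ratio.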
In general terms: qHTS replaces the single test concentration by a dilution series.

The mark [1] stands for this setting: measured here: RFP viability control channel.
Where [2] appears, read: measured here: GFP splicing reporter channel.

What is called AC50 is the concentration giving half of the maximal activity seen. Turning to `O=C(O)CC1S/C(=N\N=C2CCCCCCC2)N(c2ccccc2)C1=O` (configuration not stated), the AC50 under setting [1] is 0.01 µM [rising, full curve, poor fit]. For the compound `O=C(NCC(c1ccc(Cl)cc1)N1CCOCC1)c1ccccc1F` (configuration not stated), under setting [1], the AC50 is 0.0224 µM [falling, full curve, poor fit]. On the same count and under the same terms, then `Clc1ccc(-c2cn3cc(Br)ccc3n2)cc1Cl`, with 0.0891 µM [rising, full curve, poor fit]; and `CCS(=O)(=O)CCn1c([N+](=O)[O-])cnc1C`, with 2 µM [falling, single point]. As to `Cc1noc(C)c1-c1nc(NC2CCNCC2)c2ccccc2n1`, the AC50 is, setting by setting: under setting [2], 12.6 µM [falling, partial curve]; under setting [1], 12.6 µM [falling, single point]. With `CCOC(=O)/C=C/C(=O)Nc1ccccc1-c1ccccc1NC(=O)/C=C/C(=O)OCC`, the AC50 under setting [1] was 0.0251 µM [rising, full curve, poor fit]. For the compound `COC(=O)Nc1ccc(S(=O)(=O)N2CCC(C(=O)N3CCCCC3C)CC2)cc1` (configuration not stated), under setting [2], the AC50 is 0.251 µM [falling, full curve, poor fit].

Consider `COc1cc(/C=C2/C(=O)NN(c3cccc(C)c3)C2=O)ccc1OC(=O)c1ccco1`, for which the AC50 under setting [1] is 35.5 µM [rising, single point]. With `O=C(c1ccc2ccccc2c1)N1CCN(c2ccc([N+](=O)[O-])c(N3CCOCC3)c2)CC1`, the AC50 by setting is: under setting [2], 15.8 µM [rising, single point]; under setting [1], 22.4 µM [rising, single point]. As for `O=C(C1CCCO1)N1N=C(c2ccc(Br)cc2)CC1c1ccco1` (configuration not stated), the AC50 under setting [2] is 14.1 µM [rising, single point] and the AC50 under setting [1] was 35.5 µM [rising, single point].

As to `COc1ccc(C(=O)NCC(c2ccc3c(c2)OCO3)N2CCN(c3ccccc3F)CC2)cc1` (configuration not stated), the AC50 is, setting by setting: under setting [2], 14.1 µM [falling, single point]; under setting [1], 35.5 µM [falling, single point]. `COc1ccc(-c2[nH]c(-c3ccccc3)nc2SCC(=O)Nc2nccs2)cc1`: under setting [2], the AC50 is 2 µM [falling, single point]. Take `O=C1CCc2cc(OCCCCc3nnnn3C3CCCCC3)ccc2N1`: the AC50 was 15.8 µM [falling, single point] under setting [2] and 15.8 µM [falling, partial curve, poor fit] under setting [1]. As for `Cc1cccc(-c2cc(C(=O)N3CCCc4ccccc43)c3ccccc3n2)c1`, the AC50 under setting [1] is 12.6 µM [rising, single point].

Take `CCN(Cc1ccccc1)S(=O)(=O)c1ccc(-c2coc(C)n2)cc1`: the AC50 was 0.282 µM [falling, full curve, poor fit] under setting [2] and 0.178 µM [falling, full curve, poor fit] under setting [1]. For the compound `COc1ccc(C(=O)N/N=C/c2cn[nH]c2-c2ccc(OC)cc2OC)cc1`, the AC50 under setting [1] is 35.5 µM [rising, single point]. Consider `COc1ccc(CN2CCN(c3ccc(F)cc3)CC2)c(OC)c1OC`, for which the AC50 under setting [1] is 31.6 µM [rising, single point]. `CCOC(=O)c1sc(NC(=O)CSc2nccc(C)n2)nc1C`: the AC50 under setting [2] was 35.5 µM [falling, single point]. `C(=C\c1ccc2ccccc2n1)/c1ccccc1`: the AC50 is 20 µM [falling, partial curve, poor fit] under setting [2] and 35.5 µM [falling, single point] under setting [1]. With `O=c1cc(CN2CCN(S(=O)(=O)/C=C/c3ccccc3)CC2)c2ccc(O)cc2o1`, the AC50 under setting [1] was 14.1 µM [rising, partial curve].

Consider `N#CCC(=O)Nc1sc2c(c1C(N)=O)CCCC2`, for which the AC50 is 35.5 µM [rising, single point] under setting [2] and 35.5 µM [rising, single point] under setting [1].

In the case of `CCOC(=O)c1c(-c2ccccc2)csc1NC(=O)CSc1ccccc1`, the AC50 was 31.6 µM [rising, single point] under setting [2] and 35.5 µM [rising, single point] under setting [1]. Regarding `COc1cc(OC)c(OC)cc1CN1CCCC(C(=O)c2ccccc2SC)C1` (configuration not stated), under setting [2], the concentration at half-maximal activity (AC50) is 28.2 µM [falling, partial curve]. On to `Cn1c(CN2CCN(c3ccc(Cl)cc3)CC2)nc2ccccc21`, for which the AC50 is, setting by setting: under setting [2], 11.2 µM [rising, partial curve]; under setting [1], 12.6 µM [rising, partial curve].

Turning to `O=C(CSCc1c(F)cccc1Cl)NCc1ccncc1`, the concentration at half-maximal activity (AC50) under setting [2] was 0.00708 µM [falling, full curve, poor fit]. For `COC(=O)CC(NC(=O)c1cccs1)c1ccc(OC)c(OC)c1` (configuration not stated), the AC50 by setting is: under setting [2], 1.26 µM [rising, full curve]; under setting [1], 0.501 µM [rising, full curve]. On to `O=C(Cn1cnc2ccccc21)N/N=C/c1ccccc1`, for which the half-maximal activity concentration (AC50) under setting [2] was 50.1 µM [rising, partial curve, poor fit]. With `CCN(c1ccccc1)S(=O)(=O)c1ccc(C(=O)Nc2nnc(C3CC3)o2)cc1`, the AC50 under setting [2] was 6.31 µM [falling, single point]. On to `C[C@@]12CC[C@@H]3c4ccc(O)cc4CC[C@H]3[C@H]1C[C@@H](O)[C@H]2O`, for which the AC50 is 0.282 µM [falling, full curve] under setting [2] and 0.224 µM [falling, full curve] under setting [1]. In the case of `COc1cccc2c1C(=O)C=C(C)C2=O`, the AC50 by setting is: under setting [2], 35.5 µM [falling, single point]; under setting [1], 22.4 µM [falling, single point]. As for `COc1ccc2nc(Nc3nc(-c4cc5ccccc5oc4=O)cs3)sc2c1`, the AC50 under setting [1] was 3.55 µM [rising, single point]. For `CCCOc1ccc(-c2nc(C#N)c(N3CCN(C)CC3)o2)cc1`, the AC50 is 35.5 µM [rising, single point] under setting [2] and 35.5 µM [rising, single point] under setting [1].

For the compound `c1cc(-c2ccncc2)ccn1`, the AC50 under setting [1] is 0.0562 µM [falling, full curve, poor fit].

`CN(C)c1ccc(CNC(=O)Cn2c(=O)oc3cc(S(=O)(=O)N4CCCCCC4)ccc32)cc1`: under setting [2], the AC50 was 0.158 µM [rising, full curve, poor fit]. On the same count and under the same terms, then `CC(=O)Nc1ccc(OS(=O)(=O)c2ccc([N+](=O)[O-])cc2)cc1`, with 7.94 µM [falling, partial curve, poor fit]. For `CCOc1ccccc1NC(=O)Cn1[nH]c(=O)c2ccccc2c1=O`, the AC50 is 14.1 µM [rising, partial curve, poor fit] under setting [2] and 20 µM [rising, partial curve, poor fit] under setting [1].

On to `C/C(=N\OCC(=O)Nc1ccccc1C(C)(C)C)c1ccc2c(c1)OCCO2`, for which, under setting [1], the AC50 was 14.1 µM [rising, partial curve, poor fit].

Regarding `CCNc1nc(NC(N)=S)nc(NC(C)(C)C)n1`, the concentration at half-maximal activity (AC50) reads like this: under setting [2], 12.6 µM [falling, partial curve]; under setting [1], 0.562 µM [falling, full curve, poor fit]. As to `Cc1cccc(COc2ncnc3nc[nH]c23)c1`, the AC50 was 6.31 µM [rising, full curve] under setting [2] and 11.2 µM [rising, partial curve] under setting [1]. For `O=C(N/N=C\c1cccc([N+](=O)[O-])c1O)C1COc2ccccc2O1` (configuration not stated), under setting [1], the AC50 is 35.5 µM [rising, single point].

As to `CCc1ccc(N2CC(C(=O)Nc3ccc(C)c(S(=O)(=O)N4CCOCC4)c3)CC2=O)cc1` (configuration not stated), under setting [1], the half-maximal activity concentration (AC50) is 15.8 µM [rising, single point]. In the case of `CCOC(=O)c1cnc(SCc2cccc3ccccc23)nc1N`, the half-maximal activity concentration (AC50) under setting [2] is 10 µM [rising, partial curve] and the AC50 under setting [1] is 11.2 µM [rising, single point]. On to `Cc1ccc(-c2nn(-c3ccccc3)cc2NC(=O)CCl)cc1`, for which the AC50 is, setting by setting: under setting [2], 1 µM [falling, full curve]; under setting [1], 0.112 µM [falling, full curve, poor fit]. On to `N=c1c2c(-c3ccccc3)c(-c3ccccc3)n(Cc3ccco3)c2ncn1CCO`, for which the AC50 by setting is: under setting [2], 35.5 µM [rising, single point]; under setting [1], 11.2 µM [rising, partial curve]. `CC1=CC(=C(C#N)C#N)C=C(C)N1CCC(C)C`: under setting [2], the AC50 is 0.0251 µM [rising, full curve, poor fit]. For `Cc1c(NC(=O)OCCNC(=O)COc2ccc(Cl)cc2Cl)sc(=S)n1C`, under setting [1], the AC50 was 31.6 µM [rising, single point].

With `COc1ccc(/C=C/C(=O)Nc2cccc(C(C)=O)c2)cc1`, the AC50 under setting [1] is 11.2 µM [rising, single point]. Consider `CC(=O)/C(=N\Nc1ccc(Cl)cc1)Sc1nnc(-c2ccccc2)n1-c1ccccc1`, for which, under setting [1], the AC50 was 25.1 µM [rising, single point]. `O=C(CN(c1ccc(F)cc1)S(=O)(=O)c1ccccc1)NCCSC1CCCCC1`: the AC50 under setting [1] is 17.8 µM [rising, single point].

For `CC(C)CCC(C)NC(=O)c1ccc2nccnc2c1` (configuration not stated), the AC50 under setting [2] was 0.01 µM [falling, full curve, poor fit]. On to `O=C(c1cc(S(=O)(=O)N2CCOCC2)c(Cl)cc1Cl)N1CCCCC1`, for which the AC50 under setting [1] is 35.5 µM [rising, single point].

On to `COc1ccc(/C=N/Nc2nc(-c3ccc(Cl)cc3)cc(C(F)(F)F)n2)c(OC)c1`, for which the concentration at half-maximal activity (AC50) is, setting by setting: under setting [2], 11.2 µM [rising, partial curve, poor fit]; under setting [1], 12.6 µM [rising, single point]. Regarding `O=C(NCCc1ccc(Cl)cc1)C1CCC(CNc2c(N3CCCCC3)c(=O)c2=O)CC1` (configuration not stated), under setting [1], the AC50 is 31.6 µM [rising, single point].

With `Cc1ccc(-c2nc(SCC(=O)Nc3cc(S(=O)(=O)N4CCCCC4)ccc3Cl)n[nH]2)cc1`, the AC50 is 15.8 µM [rising, single point] under setting [2] and 17.8 µM [rising, partial curve] under setting [1]. Take `CC(=O)N1N=C(N)SC1(C)C`: the AC50 under setting [1] was 11.2 µM [falling, partial curve, poor fit].
